Some entries share one result that the patent states for a list of compounds.
Tests used:
Type in all cases: cell-based, human
MRC5 cells = assay: Metabolic activity assay (MTS assay), MRC5; conditions: 72 h, listed as Example compound 1
Experimental: Example NMT inhibitors of the present invention were tested for activity in an in vitro metabolic activity assay using the human cell line MRC5. Comparative Examples 1, 2, 3, 4, 5 and 6 were also tested in the same metabolic activity assay. Compounds having activity in inhibiting metabolic activity in the assay are expected to be useful as agents for preventing and/or treating cancer, by virtue of being inhibitors of human NMT1 and/or NMT2.
MRC5 cells (obtained from Dr David Mann's group, Imperial College; cell type: fibroblasts cells which derive from normal lung tissue) were grown in DMEM media (supplemented with 10% FBS) and were seeded in a 96-well plate, 24 h prior to treatment. […]
After 72 h, 20 μL MTS reagent (Promega, prepared according to the supplier protocol) was added to each well of the 96-well plate. The plate was incubated at 37° C. for 2 h and the absorbance per well was measured at 490 nm with an EnVision plate reader. The average absorbance value of the negative control (Puromycin-treated cells) was subtracted from each value and the metabolic activity was calculated as a percentage relative to the positive control (DMSO-treated cells). EC50 values were calculated using GraphPad.

MDA MB 231 cells = assay: CellTiter-Blue assay, MDA MB 231; conditions: 72 h, listed as Example compound 1
Experimental: (§1) Example NMT inhibitors of the present invention were tested for activity in in vitro CellTiter-Blue® assays using the human cell line MDA MB 231, LY 12318, or BL-41. Comparative Examples 1 and 2 were also tested in the same assays. Compounds having activity in inhibiting metabolic activity in the assay are expected to be useful as agents for preventing and/or treating cancer, by virtue of being inhibitors of human NMT1 and/or NMT2. […]
(§2) 72 hours later, 20 μl/well CellTiter-Blue® (G8081, Promega) were added to the plates according to the manufacturer's protocol, the plate was incubated at 37° C. for 4 h for MDA MB 231 cells and BL-41 cells, or 3 h for LY 12318 cells, followed by measuring the absorbance per well at 570 nm using an EnVision plate reader. […] The metabolic activity was calculated as a percentage relative to the positive control. The EC50 values were calculated using GraphPad Prism.

LY 12318 cells = assay: CellTiter-Blue assay, LY 12318; conditions: 72 h, listed as Example compound 1, read-out: LY12318 EC50
Experimental: as §1, §2

BL-41 cells = assay: CellTiter-Blue assay, BL-41; conditions: 72 h
Experimental: as §1, §2

Cc1c(CCOc2cc(Cl)ccc2-c2ccc3ncc(CCN)n3c2)c(C(=O)N(C)C)nn1C [Example Compound 1, 4-(2-{2-[3-(2-aminoethyl)imidazo[1,2-a]pyridin-6-yl]-5-chlorophenoxy}ethyl)-N,N,1,5-tetramethyl-1H-pyrazole-3-carboxamide] was tested, and the EC50 (MRC5 cells) was < 40 nM, the EC50 (MDA MB 231 cells) was < 70 nM and the EC50 (LY 12318 cells) was < 70 nM. The EC50 (BL-41 cells; listed as Example compound 1) was < 70 nM.

CNC(=O)c1nn(C)c(C)c1CCOc1cc(Cl)ccc1-c1ccc2ncc(CCN)n2c1 [Example Compound 2, 4-(2-{2-[3-(2-aminoethyl)imidazo[1,2-a]pyridin-6-yl]-5-chlorophenoxy}ethyl)-N,1,5-trimethyl-1H-pyrazole-3-carboxamide] was tested, and the EC50 (BL-41 cells; listed as Example compound 2) was < 70 nM.

Reference: patent publication US12304909B2, “Compounds and their use in therapy” (IMPERIAL COLLEGE INNOVATIONS LIMITED, priority 2018, dated 2025)
